Positions count from the first letter of the chain named. For part of these data: A weaker result is weaker than the reference pair of the same experiment. Protein sequences can lack the tags named with them. For part of these data: Construct, isoform or probe ends are uncertain for at least one entry. For part of these data: At least one verdict was read from the data and is not stated in words by the source.
How the values were obtained:
Experiment in all cases: EMSA
[1] = molecular target: T1, CprB K43A (Streptomyces coelicolor A3(2)) (UniProt Q7AKF2); settings: almost no effect; EMSA: 10 mM Tris-HCl pH 7.8, 50 mM KCl, 1 mM EDTA, 1 mM DTT, 5% glycerol, hemoglobin, poly(dI-dC), 20 C, ~1 nM DNA; recombinant protein; residues 1-215; label: 5'-32P
T1 sequence (looked up): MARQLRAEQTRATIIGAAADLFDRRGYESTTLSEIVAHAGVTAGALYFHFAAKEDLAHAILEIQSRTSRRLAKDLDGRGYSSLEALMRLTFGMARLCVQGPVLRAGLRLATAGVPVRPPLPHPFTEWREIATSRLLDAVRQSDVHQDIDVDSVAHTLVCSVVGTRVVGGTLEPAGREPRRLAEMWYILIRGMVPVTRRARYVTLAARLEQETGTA

[2] = molecular target: T2, CprB Y47A (Streptomyces coelicolor A3(2)) (UniProt Q7AKF2); settings: almost no effect, EMSA: 10 mM Tris-HCl pH 7.8, 50 mM KCl, 1 mM EDTA, 1 mM DTT, 5% glycerol, hemoglobin, poly(dI-dC), 20 C, ~1 nM DNA, recombinant protein, residues 1-215
T2 sequence (looked up): T1 sequence (looked up) with A43K, Y47A

[3] = molecular target: T3, CprB F48A (Streptomyces coelicolor A3(2)) (UniProt Q7AKF2); settings: almost no effect, EMSA: 10 mM Tris-HCl pH 7.8, 50 mM KCl, 1 mM EDTA, 1 mM DTT, 5% glycerol, hemoglobin, poly(dI-dC), 20 C, ~1 nM DNA, recombinant protein, residues 1-215
T3 sequence (looked up): T1 sequence (looked up) with A43K, F48A

[4] = molecular target: T4, CprB S33A (Streptomyces coelicolor A3(2)) (UniProt Q7AKF2); settings: almost no effect; EMSA: 10 mM Tris-HCl pH 7.8, 50 mM KCl, 1 mM EDTA, 1 mM DTT, 5% glycerol, hemoglobin, poly(dI-dC), 20 C, ~1 nM DNA; recombinant protein; residues 1-215; label: 5'-32P
T4 sequence (looked up): T1 sequence (looked up) with S33A, A43K

[5] = molecular target: T5, CprB T31A (Streptomyces coelicolor A3(2)) (UniProt Q7AKF2); settings: almost no effect, EMSA: 10 mM Tris-HCl pH 7.8, 50 mM KCl, 1 mM EDTA, 1 mM DTT, 5% glycerol, hemoglobin, poly(dI-dC), 20 C, ~1 nM DNA, recombinant protein, residues 1-215
T5 sequence (looked up): T1 sequence (looked up) with T31A, A43K

[6] = molecular target: T6, CprB S33A K43A (Streptomyces coelicolor A3(2)) (UniProt Q7AKF2); settings: drastic decrease; EMSA: 10 mM Tris-HCl pH 7.8, 50 mM KCl, 1 mM EDTA, 1 mM DTT, 5% glycerol, hemoglobin, poly(dI-dC), 20 C, ~1 nM DNA; recombinant protein; residues 1-215; label: 5'-32P (EMSA), none (ITC)
T6 sequence (looked up): T1 sequence (looked up) with S33A

[7] = label: 5'-32P (EMSA), none (ITC)

Sequence	binding result [1]	binding result ([2]; label: 5'-32P)	binding result ([3]; label: 5'-32P)	binding result [4]	binding result ([5]; label: 5'-32P)	binding result [6]	binding result [2, 7]	binding result [3, 7]	binding result [5, 7]
AACAGGCACACGGTCTGTTGGTTCT (double strand) [cprA upstream 25-mer (-44 to -20 of cprA-ATG)]	binds	binds	binds	binds	binds				
AGGCAGGCGGCACGGTCTGTTGAGTTC (double strand) [OPB 27-mer (-47 to -21 of cprB-ATG)]						binds more weakly	binds	binds	binds

From PMC4150764, “Structural and functional basis of transcriptional regulation by TetR family protein CprB from S. coelicolor A3(2)” (Nucleic Acids Research, 2014)
